This note sets out measurements from the supplement of paper PMC4604168 (melanoma cell lines).

The list shows a part of the results. Single values are uncertain, as repeats are few or missing.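 Imaging used 1,536-well plates; nuclei positive for cleaved PARP by antibody were divided by total DNA-stained nuclei to yield the apoptosis fraction. Doses for screening kept most cells viable, and cell lines differ markedly in resting and induced cleaved-PARP levels.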

The experiment has as its system WM3526. In words: cleaved PARP positive nuclei fraction relative to DMSO control; melanoma cells; higher = more apoptosis. Conditions: library dose: low library concentration; 72 h.
`Nc1ncn([C@H]2C[C@H](O)[C@@H](CO)O2)c(=O)n1` [decitabine] + COc1ccc(-c2ccc3c(N4CCOCC4)nc(N4C[C@@H](C)O[C@@H](C)C4)nc3n2)cc1CO [KU0063794] (first compound 0.1 µM, partner dose 0.02 µM): the “cleaved PARP positive nuclei fraction” value came out at 78.6%.
On to `CS(=O)(=O)CCNCc1ccc(-c2ccc3ncnc(Nc4ccc(OCc5cccc(F)c5)c(Cl)c4)c3c2)o1` [lapatinib] + O=S(=O)(c1ccccc1)N(CC(F)(F)F)c1ccc(C(O)(C(F)(F)F)C(F)(F)F)cc1 [T0901317] (first compound 0.8 µM, partner dose 1.4 µM), for which the “cleaved PARP positive nuclei fraction” value worked out at 79.9%.
Regarding `Nc1ccn([C@@H]2O[C@H](CO)[C@@H](O)C2(F)F)c(=O)n1` [gemcitabine] + CC1(C)NC(=O)N(c2ccc([N+](=O)[O-])c(C(F)(F)F)c2)C1=O [nilutamide] (first compound 0.0004 µM, partner dose 1 µM), the “cleaved PARP positive nuclei fraction” value was 49.5%.
For `CCCS(=O)(=O)Nc1ccc(F)c(C(=O)c2c[nH]c3ncc(Cl)cc23)c1F` + O=C1NC(=O)/C(=C/c2ccc(-c3ccc(F)cc3O)o2)S1 [AS252424] (first compound 0.08 µM, partner dose 1 µM), the “cleaved PARP positive nuclei fraction” value is 103%.
For `CNC(=O)c1cc(Oc2ccc(NC(=O)Nc3ccc(Cl)c(C(F)(F)F)c3)cc2)ccn1` [sorafenib] + C[C@@H]1CCN(C(=O)CC#N)C[C@@H]1N(C)c1ncnc2[nH]ccc12 [CP690550] (first compound 0.4 µM, partner dose 1 µM), the “cleaved PARP positive nuclei fraction” value stood at 46.2%.
As for `Cc1cc(Nc2cc(N3CCN(C)CC3)nc(/C=C/c3ccccc3)n2)n[nH]1` + CN(C)S(=O)(=O)c1ccc2c(c1)/C(=C/c1cc3c([nH]1)CCCC3)C(=O)N2 [SU6656] (first compound 0.04 µM, partner dose 0.4 µM), the figure is 98.8%; as for `Nc1ncn([C@H]2C[C@H](O)[C@@H](CO)O2)c(=O)n1` [decitabine] + CCCCCCCCCCCC1=C(O)C(=O)C=C(O)C1=O [Embelin] (first compound 0.1 µM, partner dose 1.2 µM), 60%; as for `Nc1nc(F)nc2c1ncn2[C@@H]1O[C@H](CO)[C@@H](O)[C@@H]1O` [fludarabine] + CCCCCCCCCCCC1=C(O)C(=O)C=C(O)C1=O [Embelin] (first compound 0.2 µM, partner dose 1.2 µM), 890%.
Turning to `O=C(O)c1ccc2c(c1)nc(Nc1cccc(Cl)c1)c1ccncc12` + COc1ccc2c(c1)CCC1C2CCC2(C)C(NCCCCCCN3C(=O)C=CC3=O)CCC12 [U73122] (first compound 0.4 µM, partner dose 0.4 µM), the “cleaved PARP positive nuclei fraction” value amounted to 170%.
As for `Nc1ccn([C@@H]2O[C@H](CO)[C@@H](O)C2(F)F)c(=O)n1` [gemcitabine] + CO[C@@H]1[C@H](N(C)C(=O)c2ccccc2)C[C@H]2O[C@]1(C)n1c3ccccc3c3c4c(c5c6ccccc6n2c5c31)C(=O)NC4 [Midostaurin] (first compound 0.0004 µM, partner dose 0.08 µM), the figure is 53.7%; as for `CN1CCN(c2ccc3nc(-c4c(N)c5c(F)cccc5[nH]c4=O)[nH]c3c2)CC1` [Dovitinib] + O=C(O)C(=O)Nc1sc2c(c1C(=O)O)CCNC2 [TCS401] (first compound 0.1 µM, partner dose 1.66667 µM), 68.8%; as for `Nc1ncn([C@H]2C[C@H](O)[C@@H](CO)O2)c(=O)n1` [decitabine] + COC(=O)c1sccc1S(=O)(=O)Nc1ccc(Nc2ccccc2)cc1OC [GSK0660] (first compound 0.1 µM, partner dose 1 µM), 80%.
For `Cc1cc(Nc2cc(N3CCN(C)CC3)nc(/C=C/c3ccccc3)n2)n[nH]1` + Cc1cc(N2CCOCC2)cc2[nH]c(-c3c(NC[C@@H](O)c4cccc(Cl)c4)cc[nH]c3=O)nc12 [BMS536924] (first compound 0.04 µM, partner dose 0.2 µM) the value was 31.7%.
As to `Cn1c(=O)n(-c2ccc(C(C)(C)C#N)cc2)c2c3cc(-c4cnc5ccccc5c4)ccc3ncc21` + NC(=O)Nc1cc(-c2cccc(F)c2)sc1C(=O)N[C@H]1CCCNC1 [AZD7762] (first compound 0.004 µM, partner dose 0.02 µM), the “cleaved PARP positive nuclei fraction” value was 289%.
For `C=C(c1ccc(C(=O)O)cc1)c1cc2c(cc1C)C(C)(C)CCC2(C)C` [Bexarotene] + O=C(Nc1ccccc1)c1cc([N+](=O)[O-])ccc1Cl [GW9662] (first compound 2 µM, partner dose 2 µM) the value was 90.1%.
`CNC(=O)c1cc(Oc2ccc(NC(=O)Nc3ccc(Cl)c(C(F)(F)F)c3)cc2)ccn1` [sorafenib] + COC(=O)c1sccc1S(=O)(=O)Nc1ccc(Nc2ccccc2)cc1OC [GSK0660] (first compound 0.4 µM, partner dose 1 µM): the “cleaved PARP positive nuclei fraction” value was determined as 77.6%.
Take `CNC(=O)c1cc(Oc2ccc(NC(=O)Nc3ccc(Cl)c(C(F)(F)F)c3)cc2)ccn1` [sorafenib] + CCCCCCCCCCCC1=C(O)C(=O)C=C(O)C1=O [Embelin] (first compound 0.4 µM, partner dose 1.2 µM): the “cleaved PARP positive nuclei fraction” value stood at 162%.
Consider `CS(=O)(=O)CCNCc1ccc(-c2ccc3ncnc(Nc4ccc(OCc5cccc(F)c5)c(Cl)c4)c3c2)o1` [lapatinib] + CN(C)S(=O)(=O)c1ccc2c(c1)/C(=C/c1cc3c([nH]1)CCCC3)C(=O)N2 [SU6656] (first compound 0.8 µM, partner dose 0.4 µM), for which the “cleaved PARP positive nuclei fraction” value was 55.6%.
For the molecule `C[C@@H](Oc1cc(-c2cnn(C3CCNCC3)c2)cnc1N)c1c(Cl)ccc(F)c1Cl` [Crizotinib] + CCCCCCCCCCCC1=C(O)C(=O)C=C(O)C1=O [Embelin] (first compound 0.2 µM, partner dose 1.2 µM), the “cleaved PARP positive nuclei fraction” value is 131%.
For `Nc1nc(F)nc2c1ncn2[C@@H]1O[C@H](CO)[C@@H](O)[C@@H]1O` [fludarabine] + Cc1cc(N2CCOCC2)cc2[nH]c(-c3c(NC[C@@H](O)c4cccc(Cl)c4)cc[nH]c3=O)nc12 [BMS536924] (first compound 0.2 µM, partner dose 0.2 µM) the value was 578%; for `Cc1cc(Nc2cc(N3CCN(C)CC3)nc(/C=C/c3ccccc3)n2)n[nH]1` + COc1ccc(COc2ccc(Cc3cnc(N)nc3N)cc2OC)cc1 [GW2580] (first compound 0.04 µM, partner dose 1 µM), 70.2%.
With `CNC(=O)c1cc(Oc2ccc(NC(=O)Nc3ccc(Cl)c(C(F)(F)F)c3)cc2)ccn1` [sorafenib] + NCC(=O)Nc1ccc(-n2nc(C(F)(F)F)cc2-c2ccc3c(ccc4ccccc43)c2)cc1 [OSU03012] (first compound 0.4 µM, partner dose 1 µM), the “cleaved PARP positive nuclei fraction” value is 108%.
As to `Cc1cc(Nc2cc(N3CCN(C)CC3)nc(/C=C/c3ccccc3)n2)n[nH]1` + OCCn1cc(-c2cnc3nnn(Cc4ccc5ncccc5c4)c3n2)cn1 [PF04217903] (first compound 0.04 µM, partner dose 1 µM), the “cleaved PARP positive nuclei fraction” value is 57%.
On to `Nc1nc(F)nc2c1ncn2[C@@H]1O[C@H](CO)[C@@H](O)[C@@H]1O` [fludarabine] + CCc1ccc(CCOc2ccc(CC3SC(=O)NC3=O)cc2)nc1 [pioglitazone] (first compound 0.2 µM, partner dose 2 µM), for which the “cleaved PARP positive nuclei fraction” value was 456%.
As for `CS(=O)(=O)CCNCc1ccc(-c2ccc3ncnc(Nc4ccc(OCc5cccc(F)c5)c(Cl)c4)c3c2)o1` [lapatinib] + OCCn1cc(-c2cnc3nnn(Cc4ccc5ncccc5c4)c3n2)cn1 [PF04217903] (first compound 0.8 µM, partner dose 1 µM), the “cleaved PARP positive nuclei fraction” value came to 63.6%.
For `CNC(=O)c1cc(Oc2ccc(NC(=O)Nc3ccc(Cl)c(C(F)(F)F)c3)cc2)ccn1` [sorafenib] + Cc1cc([N+](=O)[O-])ccc1NS(=O)(=O)c1cc(Cl)ccc1Cl [FH535] (first compound 0.4 µM, partner dose 1 µM) the value was 77.7%; for `CN1CCN(c2ccc3nc(-c4c(N)c5c(F)cccc5[nH]c4=O)[nH]c3c2)CC1` [Dovitinib] + COc1ccc2c(c1)CCC1C2CCC2(C)C(NCCCCCCN3C(=O)C=CC3=O)CCC12 [U73122] (first compound 0.1 µM, partner dose 0.4 µM), 64.7%.
Turning to `O=C(O)[C@@H]1[O][Sb](=[O])([O][Sb]2(=[O])[O][C@H]([C@H](O)CO)[C@H](O)[C@H](C(=O)O)[O]2)[O][C@H]([C@H](O)CO)[C@@H]1O` (stereo partly specified) [stibogluconate] + COc1cc(N2CCC(N3CCN(C)CC3)CC2)ccc1Nc1ncc(Cl)c(Nc2ccccc2S(=O)(=O)C(C)C)n1 [NVP-TAE684] (first compound 2 µM, partner dose 0.08 µM), the “cleaved PARP positive nuclei fraction” value was found to be 82.9%.
As to `CCCS(=O)(=O)Nc1ccc(F)c(C(=O)c2c[nH]c3ncc(Cl)cc23)c1F` + N#Cc1c(O)c2c(-c3ccc(-c4ccccc4O)cc3)csc2[nH]c1=O [A769662] (first compound 0.08 µM, partner dose 2 µM), the “cleaved PARP positive nuclei fraction” value was determined as 89.2%.
Turning to `CN1CCN(c2ccc3nc(-c4c(N)c5c(F)cccc5[nH]c4=O)[nH]c3c2)CC1` [Dovitinib] + Cc1cc(N2CCOCC2)cc2[nH]c(-c3c(NC[C@@H](O)c4cccc(Cl)c4)cc[nH]c3=O)nc12 [BMS536924] (first compound 0.1 µM, partner dose 0.2 µM), the “cleaved PARP positive nuclei fraction” value is 83.8%.
Regarding `C[C@@H](Oc1cc(-c2cnn(C3CCNCC3)c2)cnc1N)c1c(Cl)ccc(F)c1Cl` [Crizotinib] + COc1ccc(-c2ccc3c(N4CCOCC4)nc(N4C[C@@H](C)O[C@@H](C)C4)nc3n2)cc1CO [KU0063794] (first compound 0.2 µM, partner dose 0.02 µM), the “cleaved PARP positive nuclei fraction” value worked out at 79%.
